Assay results published in US20230257653A1, “FRACTAL FORMULATIONS” (NANOGYRE Sprl., priority 2020, published 2023).
At least one read-out could not be matched to a standard name with certainty.

Assay: Solubilization of hydrophobic cargo in betaine/Polysorbate 80/water liquid crystal, centrifugation 4000 rpm
Conditions: transparent solution without any suspended particle, no pellet
Experimental: Mixing 2 ml of distilled water and 40 μL of Polysorbate 80, then adding 400 mg of pure curcumin, manually mixing and then adding 2 g of betaine all again mixed by vigorous manual stirring. The mixture of the 4 ingredients is then subjected for 20 minutes to a centrifugation of 4000 rpm.
(§1) The mixture of the 4 ingredients is then subjected for 30 minutes to a centrifugation of 4000 rpm.
The mixture of the 4 ingredients is then subjected for 40 minutes to a centrifugation of 4000 rpm.
as §1
Mixing 2 ml of distilled water and 35 μL of Polysorbate 80, then adding 50 mg of Clofazimine, mixing manually and then subjecting to a centrifugation of 4000 rpm and then adding 2 g of betaine all again mixed by vigorous manual stirring. The mixture of the 4 ingredients is then subjected for 30 minutes to a centrifugation of 4000 rpm.

C=C(C)[C@@H]1CCC(C)=C[C@H]1c1c(O)cc(CCCCC)cc1O [Cannabidiol]
solubilization result (visual): completely solubilized
